Binding data for three molecules are collected here from publication doi:10.1101/2024.01.10.574961.

Results are given in words; binding and its absence hold for the method and conditions named. For part of these data: In cells and extracts the contact can be indirect. Some binding calls cover weakened binding; strength is not graded here. For part of these data: Tags and fused reporters may be left off the sequences shown.

Test [1] addresses T1, pGBK-rgf1 (pRZ97) (S. pombe) (UniProt Q9Y7U6).
T1 sequence: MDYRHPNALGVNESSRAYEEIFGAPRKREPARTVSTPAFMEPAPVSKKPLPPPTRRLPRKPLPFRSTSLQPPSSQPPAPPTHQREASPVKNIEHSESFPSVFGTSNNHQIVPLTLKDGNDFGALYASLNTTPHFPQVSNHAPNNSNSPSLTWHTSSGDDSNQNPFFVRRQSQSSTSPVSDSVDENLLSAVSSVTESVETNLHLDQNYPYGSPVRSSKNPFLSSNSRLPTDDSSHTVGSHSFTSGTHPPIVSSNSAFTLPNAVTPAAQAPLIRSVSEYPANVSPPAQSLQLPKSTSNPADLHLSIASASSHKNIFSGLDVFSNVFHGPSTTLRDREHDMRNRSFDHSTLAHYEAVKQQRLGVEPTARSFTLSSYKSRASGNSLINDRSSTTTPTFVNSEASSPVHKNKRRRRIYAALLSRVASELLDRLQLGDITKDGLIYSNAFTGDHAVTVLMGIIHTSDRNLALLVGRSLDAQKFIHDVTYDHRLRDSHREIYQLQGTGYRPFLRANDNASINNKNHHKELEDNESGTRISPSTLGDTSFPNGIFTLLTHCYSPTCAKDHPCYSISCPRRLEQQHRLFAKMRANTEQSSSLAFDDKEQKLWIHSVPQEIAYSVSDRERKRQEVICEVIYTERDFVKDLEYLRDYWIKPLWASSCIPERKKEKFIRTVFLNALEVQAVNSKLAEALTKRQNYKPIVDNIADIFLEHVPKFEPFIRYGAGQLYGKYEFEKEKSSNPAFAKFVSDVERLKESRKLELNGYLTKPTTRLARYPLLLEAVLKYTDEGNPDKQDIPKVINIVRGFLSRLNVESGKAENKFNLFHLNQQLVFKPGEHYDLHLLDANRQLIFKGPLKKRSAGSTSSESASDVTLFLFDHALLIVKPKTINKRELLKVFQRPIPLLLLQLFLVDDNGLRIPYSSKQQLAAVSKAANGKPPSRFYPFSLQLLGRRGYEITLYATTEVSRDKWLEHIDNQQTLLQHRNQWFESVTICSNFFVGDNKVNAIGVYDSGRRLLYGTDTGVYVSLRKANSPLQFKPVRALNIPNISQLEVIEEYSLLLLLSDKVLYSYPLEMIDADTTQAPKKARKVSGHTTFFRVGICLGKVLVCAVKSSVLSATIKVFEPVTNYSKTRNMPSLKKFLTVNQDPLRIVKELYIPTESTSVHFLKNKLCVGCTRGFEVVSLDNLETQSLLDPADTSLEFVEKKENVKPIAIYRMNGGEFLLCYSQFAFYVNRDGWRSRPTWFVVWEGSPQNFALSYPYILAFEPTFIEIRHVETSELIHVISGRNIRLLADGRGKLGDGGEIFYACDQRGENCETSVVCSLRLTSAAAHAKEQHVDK
Put plainly: two-hybrid.

The target of another test is T2, GST-Tea4 (S. pombe) (UniProt O60132).
T2 sequence: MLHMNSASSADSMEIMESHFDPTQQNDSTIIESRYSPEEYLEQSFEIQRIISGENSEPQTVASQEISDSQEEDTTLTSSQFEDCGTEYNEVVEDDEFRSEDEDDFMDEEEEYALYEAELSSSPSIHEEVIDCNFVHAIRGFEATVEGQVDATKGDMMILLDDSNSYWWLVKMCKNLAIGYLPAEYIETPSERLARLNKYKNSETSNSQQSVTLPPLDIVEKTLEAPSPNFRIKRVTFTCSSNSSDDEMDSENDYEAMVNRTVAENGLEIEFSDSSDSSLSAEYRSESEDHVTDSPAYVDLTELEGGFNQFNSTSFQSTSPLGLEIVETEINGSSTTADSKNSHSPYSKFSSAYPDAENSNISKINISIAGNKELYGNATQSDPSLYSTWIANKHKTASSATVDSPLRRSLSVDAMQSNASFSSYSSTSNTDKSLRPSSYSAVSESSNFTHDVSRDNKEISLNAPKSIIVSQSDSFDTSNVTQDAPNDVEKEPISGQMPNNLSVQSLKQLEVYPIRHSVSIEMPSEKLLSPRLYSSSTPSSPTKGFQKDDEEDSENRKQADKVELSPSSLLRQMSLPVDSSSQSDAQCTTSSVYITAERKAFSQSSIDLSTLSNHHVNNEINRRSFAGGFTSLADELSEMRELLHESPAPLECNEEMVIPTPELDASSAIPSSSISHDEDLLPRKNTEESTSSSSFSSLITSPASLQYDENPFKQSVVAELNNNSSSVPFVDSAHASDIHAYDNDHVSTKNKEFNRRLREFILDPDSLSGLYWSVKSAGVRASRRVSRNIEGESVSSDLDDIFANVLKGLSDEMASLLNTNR
The test can be described thus: pull-down.

B1: pGAD-tea1 (pGR135) (protein, UniProt P87061 1-1147)
chain: MSFLFKRNKGSAHKPTKPNFSKTSTTPSTSQLKHSHESNVKMSTSTVTEHRKKPTGSGSHITASPWSKLTVRGSSNVLPRYSHASHLYAEGGQEIYIFGGVASDSQPKNDLWVLNLATSQFTSLRSLGETPSPRLGHASILIGNAFIVFGGLTNHDVADRQDNSLYLLNTSSLVWQKANASGARPSGRYGHTISCLGSKICLFGGRLLDYYFNDLVCFDLNNLNTSDSRWELASVVNDPPPARAGHVAFTFSDKLYIFGGTDGANFFNDLWCYHPKQSAWSKVETFGVAPNPRAGHAASVVEGILYVFGGRASDGTFLNDLYAFRLSSKHWYKLSDLPFTPSPRSSHTLSCSGLTLVLIGGKQGKGASDSNVYMLDTSRFRLGSVPTTSGRQRNTSFFSNSTGNTNPSAFNGLLTSSRIPSYNGSKVRSTSHPSRQQYIGSSNSRFNTRHQTISTPVSGRASNDLPSPVVPTRSNSSSILQPSYNLNSHSSDRRNTNDDDQSSLNSQQLSNQAKAQGEVSPTLSFVPSSHSMEQGNGSVASANNAQSEAATRSINSISEVSEVRFPEQSSVKTVDERKSLDGRITSVTLETLVEKYSELSKQQIVEWFKSKLYEILRDSASKIDSLTEKLKVANAEKNAALCEAALEKVPLAKHNKLSDGTFSTPDKENVQSTNDAHIMQENFSLHKALEVMRETSSDLDKQLKDATASQKELIVQTSSFQKELVEERERHNAISKRLQEIESLYRDRELLVTNLEDQLVDQTVTINKFAFERDQFRERSMGFENTIKDLTRKMEATDMLNVSLHESLRSVQTENSELVTEMALLKAELVKKQAIIDANANIYDKLTADHTNYETVSADINQNLKETLDKLLNGSSDFKNNEIELLHDQIRITNAKLEKREKLINASKYIEDTLRSEIQEAAEKVSNLEFSNFNLKEENSNMQLQLMKALEQRNTGAKQLVNLRMQLSTATSELDMLKLKLRTTALALEESPDDYSDILSILRADMSPFHDLHKQCGVLIDTLNGVKRGFGIFEKKFTDYHKFLENISDKLKSEEDTSLETPIHENQSIQSDQIKEVGEVLSAIKSLSDSVMLLKNQIDDLAKEKLPLSSSDDEKVNIKEKTDFMKLLVKSGLSNPPAKEPVHDNEN
Turning to B1, the binding entry in test [1] is given as “no binding”.

B2: Rgf1-GFP (protein, UniProt Q9Y7U6 1-1334)
chain: MDYRHPNALGVNESSRAYEEIFGAPRKREPARTVSTPAFMEPAPVSKKPLPPPTRRLPRKPLPFRSTSLQPPSSQPPAPPTHQREASPVKNIEHSESFPSVFGTSNNHQIVPLTLKDGNDFGALYASLNTTPHFPQVSNHAPNNSNSPSLTWHTSSGDDSNQNPFFVRRQSQSSTSPVSDSVDENLLSAVSSVTESVETNLHLDQNYPYGSPVRSSKNPFLSSNSRLPTDDSSHTVGSHSFTSGTHPPIVSSNSAFTLPNAVTPAAQAPLIRSVSEYPANVSPPAQSLQLPKSTSNPADLHLSIASASSHKNIFSGLDVFSNVFHGPSTTLRDREHDMRNRSFDHSTLAHYEAVKQQRLGVEPTARSFTLSSYKSRASGNSLINDRSSTTTPTFVNSEASSPVHKNKRRRRIYAALLSRVASELLDRLQLGDITKDGLIYSNAFTGDHAVTVLMGIIHTSDRNLALLVGRSLDAQKFIHDVTYDHRLRDSHREIYQLQGTGYRPFLRANDNASINNKNHHKELEDNESGTRISPSTLGDTSFPNGIFTLLTHCYSPTCAKDHPCYSISCPRRLEQQHRLFAKMRANTEQSSSLAFDDKEQKLWIHSVPQEIAYSVSDRERKRQEVICEVIYTERDFVKDLEYLRDYWIKPLWASSCIPERKKEKFIRTVFLNALEVQAVNSKLAEALTKRQNYKPIVDNIADIFLEHVPKFEPFIRYGAGQLYGKYEFEKEKSSNPAFAKFVSDVERLKESRKLELNGYLTKPTTRLARYPLLLEAVLKYTDEGNPDKQDIPKVINIVRGFLSRLNVESGKAENKFNLFHLNQQLVFKPGEHYDLHLLDANRQLIFKGPLKKRSAGSTSSESASDVTLFLFDHALLIVKPKTINKRELLKVFQRPIPLLLLQLFLVDDNGLRIPYSSKQQLAAVSKAANGKPPSRFYPFSLQLLGRRGYEITLYATTEVSRDKWLEHIDNQQTLLQHRNQWFESVTICSNFFVGDNKVNAIGVYDSGRRLLYGTDTGVYVSLRKANSPLQFKPVRALNIPNISQLEVIEEYSLLLLLSDKVLYSYPLEMIDADTTQAPKKARKVSGHTTFFRVGICLGKVLVCAVKSSVLSATIKVFEPVTNYSKTRNMPSLKKFLTVNQDPLRIVKELYIPTESTSVHFLKNKLCVGCTRGFEVVSLDNLETQSLLDPADTSLEFVEKKENVKPIAIYRMNGGEFLLCYSQFAFYVNRDGWRSRPTWFVVWEGSPQNFALSYPYILAFEPTFIEIRHVETSELIHVISGRNIRLLADGRGKLGDGGEIFYACDQRGENCETSVVCSLRLTSAAAHAKEQHVDK
As to B2, in the test with GST-Tea4 (S. pombe), the binding result is listed as “binds”.

B3: pGAD-tea4 (pGR106) (protein, UniProt O60132 1-821)
chain: MLHMNSASSADSMEIMESHFDPTQQNDSTIIESRYSPEEYLEQSFEIQRIISGENSEPQTVASQEISDSQEEDTTLTSSQFEDCGTEYNEVVEDDEFRSEDEDDFMDEEEEYALYEAELSSSPSIHEEVIDCNFVHAIRGFEATVEGQVDATKGDMMILLDDSNSYWWLVKMCKNLAIGYLPAEYIETPSERLARLNKYKNSETSNSQQSVTLPPLDIVEKTLEAPSPNFRIKRVTFTCSSNSSDDEMDSENDYEAMVNRTVAENGLEIEFSDSSDSSLSAEYRSESEDHVTDSPAYVDLTELEGGFNQFNSTSFQSTSPLGLEIVETEINGSSTTADSKNSHSPYSKFSSAYPDAENSNISKINISIAGNKELYGNATQSDPSLYSTWIANKHKTASSATVDSPLRRSLSVDAMQSNASFSSYSSTSNTDKSLRPSSYSAVSESSNFTHDVSRDNKEISLNAPKSIIVSQSDSFDTSNVTQDAPNDVEKEPISGQMPNNLSVQSLKQLEVYPIRHSVSIEMPSEKLLSPRLYSSSTPSSPTKGFQKDDEEDSENRKQADKVELSPSSLLRQMSLPVDSSSQSDAQCTTSSVYITAERKAFSQSSIDLSTLSNHHVNNEINRRSFAGGFTSLADELSEMRELLHESPAPLECNEEMVIPTPELDASSAIPSSSISHDEDLLPRKNTEESTSSSSFSSLITSPASLQYDENPFKQSVVAELNNNSSSVPFVDSAHASDIHAYDNDHVSTKNKEFNRRLREFILDPDSLSGLYWSVKSAGVRASRRVSRNIEGESVSSDLDDIFANVLKGLSDEMASLLNTNR
Consider B3, for which the binding result in test [1] is recorded as “binds”.
